# From the supplement of paper PMC3334620
# Over roughly 33,000 sequences, “E-score (-0.5 to 0.5)” has its median near -0.015; the highest 2% begin near 0.3. The list shows a part of the results.
# Target: T1, Abf1 (UniProt P14164)
# T1 sequence: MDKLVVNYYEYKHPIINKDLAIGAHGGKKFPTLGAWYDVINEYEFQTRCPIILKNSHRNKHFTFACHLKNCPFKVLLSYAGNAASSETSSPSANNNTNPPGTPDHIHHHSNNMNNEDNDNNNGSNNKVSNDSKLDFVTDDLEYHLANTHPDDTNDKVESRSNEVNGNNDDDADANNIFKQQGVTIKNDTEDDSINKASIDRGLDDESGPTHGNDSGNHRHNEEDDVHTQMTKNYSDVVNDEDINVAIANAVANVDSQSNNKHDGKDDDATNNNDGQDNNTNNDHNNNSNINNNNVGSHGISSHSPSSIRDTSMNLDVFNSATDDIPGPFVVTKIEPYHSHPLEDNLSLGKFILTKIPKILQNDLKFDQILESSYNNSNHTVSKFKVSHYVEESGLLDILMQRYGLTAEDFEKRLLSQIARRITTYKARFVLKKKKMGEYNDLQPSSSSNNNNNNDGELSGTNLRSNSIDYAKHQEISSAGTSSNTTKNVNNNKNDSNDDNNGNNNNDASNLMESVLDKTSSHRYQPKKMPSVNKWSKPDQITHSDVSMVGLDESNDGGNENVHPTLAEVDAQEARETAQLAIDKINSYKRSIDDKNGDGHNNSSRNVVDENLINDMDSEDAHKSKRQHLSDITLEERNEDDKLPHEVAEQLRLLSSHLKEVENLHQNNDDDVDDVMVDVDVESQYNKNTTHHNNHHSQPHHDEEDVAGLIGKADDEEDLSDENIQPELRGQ
# Test: PBM E-score (8-mer binding enrichment) (E-score (-0.5 to 0.5)); higher = stronger / more preferred TF binding
# Conditions: protein concentration: 200 nM; construct: GST-full length
# Summary of the method: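 Using PURExpress in vitro transcription/translation, GST-tagged yeast transcription factors were made in full-length or DNA-binding-domain form. These were applied at about 100-200 nM to double-stranded universal all-10-mer Agilent arrays, and bound protein was detected with fluorescent anti-GST. Scans were normalised with masliner before the Universal PBM Analysis Suite assigned E-scores to ungapped eight-base words pooled with their reverse complements.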
row,Sequence,PBM E-score
1,ACACATTG,0.00282
2,ACGAACAT,0.237
3,CGCTGTAA,-0.0975
4,CCGGGACG,-0.132
5,CATCTCCA,-0.025
6,ATTTTCGG,0.145
7,ATTGACTG,0.00827
8,TTATACAA,0.113
9,GTCATCTA,0.183
10,GACATGCC,0.0181
11,AGAAATCT,0.00508
12,GGGATTAA,-0.0401
13,ATAAGGAA,-0.234
14,CAATAGCG,-0.144
15,CTATTAAC,0.122
16,GTGTTGCA,0.0765
17,AGCCCTAC,-0.0851
18,ACATCCGC,-0.00592
19,ATCAGCCG,-0.0221
20,TGGGAGAA,-0.155
21,ACTCCCAG,-0.115
22,ACAGGATG,0.0931
23,CATCCGAC,0.151
24,ACAGGAGA,0.0304

# As entered above.
# Entry of CATCTCCA under PBM E-score: -0.025
# Entry of CAATAGCG under PBM E-score: -0.144
# Entry of AGCCCTAC under PBM E-score: -0.0851
# Entry of TGGGAGAA under PBM E-score: -0.155

# Next part

row,Sequence,PBM E-score
1,AAATTCGC,0.0441
2,CCTTAATC,-0.128
3,CGCTGCTC,-0.0119
4,CTTTGGAA,-0.0263
5,CGGATATA,0.185
6,CCGACAGG,-0.0487
7,CAATACAG,-0.0786
8,ATCGCGTG,0.23
9,CTACAATC,0.164
10,CAACGCCC,-0.181
11,CGGCTTGA,-0.0107
12,TAAACAAA,0.118
13,AATGTTAT,0.105
14,ACCACCCC,-0.265
15,ACTTAAAG,-0.173
16,CCAGCACC,-0.289
17,CCTTACCA,-0.135
18,CTGTTAAC,0.0149
19,CACCTCTA,0.0679
20,GGCCAGTA,-0.125
21,AGATCCCG,0.117
22,CGATCAGC,-0.0419
23,AAGGTTAG,-0.108
24,ACTCTCAA,-0.0983

row,Sequence,PBM E-score
1,AGGCTACA,-0.265
2,CGTATTTA,0.335
3,CAGGGCCC,-0.279
4,AGCTTCTG,-0.16
5,GGCACTGA,-0.136
6,CTAACTTC,0.00313
7,AACGTGCC,-0.0898
8,AATGTGCG,0.0693
9,ACAAAGGC,-0.241
10,AGAACATC,0.0178
11,ATGAGGGC,-0.18
12,GCTTCAAA,0.17
13,GGACCTCA,-0.0312
14,GTCGCGAC,0.32
15,CCGCAAGC,-0.209
16,CGGTAAGC,-0.159
17,AGCTTAAA,0.0797
18,AACCTATG,-0.0835
19,ACTGATTC,-0.146
20,GAAATTCA,0.0636
21,CTTAGCAA,-0.168
22,CACGTGCA,0.139
23,GACATAAC,0.143
24,CACAGAGC,-0.139

row,Sequence,PBM E-score
1,AGATTTTG,0.125
2,ACTCAAGT,-0.0617
3,GGGCTACA,-0.109
4,TGCGGACA,-0.056
5,AGTGTAGG,0.029
6,GCGCTTAC,-0.11
7,AACAACAT,0.00732
8,CACCCGCA,-0.205
9,CATCGATA,0.232
10,GGCGCCAC,-0.0143
11,CAGCTTCC,-0.151
12,GTGGGAAC,0.00825
13,CGCCGACG,-0.0196
14,ACACCCCC,-0.266
15,GCCAGCAA,-0.252
16,GGCGGACC,-0.2
17,CCCGTTGA,0.0316
18,CTAAACAC,-0.0276
19,ACGACTAA,0.0761
20,AAAGTAAG,0.0225
21,CATCGGGC,0.0177
22,TGGATACA,-0.00372
